Experimental data published in article PMC12071194.
Results are given in words; binding and its absence hold for the method and conditions named. In cells and extracts the contact can be indirect. A result given as binding can be weak or reduced; the word gives no strength.

Target: mCherry-BNIP3 (WT)
Assay: co-IP; RFP-trap magnetic agarose on lysates (0.5% triton X-100 buffer) of B/N DKO HeLa cells expressing mCherry-BNIP3 or mCherry-NIX; cells cultured with 1 mM DFP for 12 h, then 12 h more with 100 nM bafilomycin A1 and DFP; immunoblot

- binding: binds weakly
B1: WIPI2 (protein, UniProt Q9Y4P8 1-454)
chain: MNLASQSGEAGAGQLLFANFNQDNTEVKGASRAAGLGRRAVVWSLAVGSKSGYKFFSLSSVDKLEQIYECTDTEDVCIVERLFSSSLVAIVSLKAPRKLKVCHFKKGTEICNYSYSNTILAVKLNRQRLIVCLEESLYIHNIRDMKVLHTIRETPPNPAGLCALSINNDNCYLAYPGSATIGEVQVFDTINLRAANMIPAHDSPLAALAFDASGTKLATASEKGTVIRVFSIPEGQKLFEFRRGVKRCVSICSLAFSMDGMFLSASSNTETVHIFKLETVKEKPPEEPTTWTGYFGKVLMASTSYLPSQVTEMFNQGRAFATVRLPFCGHKNICSLATIQKIPRLLVGAADGYLYMYNLDPQEGGECALMKQHRLDGSLETTNEILDSASHDCPLVTQTYGAAAGKGTYVPSSPTRLAYTDDLGAVGGACLEDEASALRLDEDSEHPPMILRTD
